This experiment relates to B6C3F1 mice, ip Sarcoma M5076, median survival T/C. The experiment can be described thus: NCI In Vivo Anticancer Drug Screen. Data for tumor model Sarcoma M5076 (intraperitoneal) in B6C3F1 mice. Particulars: T/C endpoint: median survival time, higher T/C = longer survival. In short, it runs like this: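 Antitumour effect is judged in tumour-bearing mice by comparing survival after compound dosing against vehicle-only animals, reported as T/C.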

Where [1] appears, read: dose: 800.0 mg/kg/injection, schedule: Q04DX004 (ip), vehicle: Klucel (hydroxypropylcellulose) (HPC).
Setting [2] is: dose: 100.0 mg/kg/injection, schedule: Q04DX004 (ip), vehicle: Klucel (hydroxypropylcellulose) (HPC).
[3] abbreviates: dose: 400.0 mg/kg/injection, schedule: Q04DX004 (ip), vehicle: saline with Tween-80.
Where [4] appears, read: dose: 400.0 mg/kg/injection, schedule: Q04DX004 (ip), vehicle: water.
The mark [5] stands for this setting: dose: 800.0 mg/kg/injection, schedule: Q04DX004 (ip), vehicle: saline with Tween-80.
Where [6] appears, read: dose: 200.0 mg/kg/injection, schedule: Q04DX004 (ip), vehicle: Klucel (hydroxypropylcellulose) (HPC).
The mark [7] stands for this setting: dose: 400.0 mg/kg/injection, schedule: Q04DX004 (ip), vehicle: Klucel (hydroxypropylcellulose) (HPC).

The list is a part of this screen's results and no random one: it gathers tests that were run many times, whatever their T/C, doses with no T/C, and many T/C values between a quarter and a half above the control. Other doses and runs of a compound stand elsewhere. T/C gives the treated animals as a percentage of the vehicle group. Some doses have a count of surviving animals in place of a T/C: the source holds a T/C of zero for them, seemingly a mark for toxic or unscored doses. Some survivor counts are full or nearly so, which does not show that the dose was tolerated: survival well below the control is almost never listed, so the zero probably covers shortened survival too. Counts of survivors are from the toxicity check (mostly the fifth day) where no day follows; animals may have died later. Schedules are NCI's codes, read here as Q, the interval in days (D) or hours (H), X, the number of doses. Some structures stand for samples that the source files as different forms (salt, stereo form or complex); doses refer to the form tested. Some entries were tested several times; the results are listed from low to high. Where survival is the endpoint, this PubChem deposit counts one and a half times the control or more as active, and values a quarter to a half above the control carry no call in these data; other NCI protocols may use other cut-offs. Marks such as (2×) count equal records among those shown. Some T/C values are followed by the survivors on the day toxicity was checked, most often the fifth; where none is given, no animal had died by that day.

Turning to `COc1cc(C(=O)c2cc3c(cc2C)OCO3)cc(OC)c1OC`, the T/C (dose: 300.0 mg/kg/injection, schedule: Q04DX004 (ip), vehicle: Klucel (hydroxypropylcellulose) (HPC)) is 126 % of control [9 of 10 alive on day 14]. Besides, the survivor count is, setting by setting: (dose: 600.0 mg/kg/injection, schedule: Q04DX004 (ip), vehicle: Klucel (hydroxypropylcellulose) (HPC)) 2 of 10 on day 14 and 10 of 10 on day 14; (dose: 1200.0 mg/kg/injection, schedule: Q04DX004 (ip), vehicle: Klucel (hydroxypropylcellulose) (HPC)) 0 of 10 on day 14.
`COc1ccc2c(c1)-c1nn(CCCN(C)C)c3ccc([N+](=O)[O-])c(c13)N2`: the T/C runs as follows: (dose: 6.25 mg/kg/injection, schedule: Q04DX004 (ip), vehicle: water) 135 % of control; (dose: 12.5 mg/kg/injection, schedule: Q04DX004 (ip), vehicle: water) 135 % of control; (dose: 25.0 mg/kg/injection, schedule: Q04DX004 (ip), vehicle: water) 143 and 147 % of control. The survivor count (dose: 100.0 mg/kg/injection, schedule: Q04DX004 (ip), vehicle: water) was 0 of 10 on day 14.
As to `COc1cccc(C2C(C#N)C(=O)NC(=O)C2C#N)c1` (stereo unspecified), the survivor count under setting [1] was 0 of 10 on day 14.
Consider `O=C1N2CCNc3ccccc3C(c3ccccc3)N1CC2` (stereo unspecified), for which the survivor count runs as follows: (dose: 50.0 mg/kg/injection, schedule: Q04DX004 (ip), vehicle: Klucel (hydroxypropylcellulose) (HPC)) 0 of 10 on day 14; under setting [2], 0 of 10 on day 14.
Regarding `CCc1n[nH]c(CC)c1CCCCCCOc1ccc(OC)cc1Cl`, the survivor count by setting is: (dose: 150.0 mg/kg/injection, schedule: Q04DX004 (ip), vehicle: saline with Tween-80) 10 of 10 on day 14; (dose: 300.0 mg/kg/injection, schedule: Q04DX004 (ip), vehicle: saline with Tween-80) 5 of 10 on day 14; under setting [3], 7 of 10 on day 14; (dose: 600.0 mg/kg/injection, schedule: Q04DX004 (ip), vehicle: saline with Tween-80) 0 of 10 on day 14.
Turning to `Oc1cccc2ccccc12`, the survivor count runs as follows: (dose: 200.0 mg/kg/injection, schedule: Q04DX004 (ip), vehicle: water) 9 of 10 on day 14; under setting [4], 0 of 10 on day 14.
With `N#CC1C(=O)NC(=S)NC1c1ccc2c(c1)CCC2` (stereo unspecified), the survivor count is given as 0 of 10 on day 14 (dose: 400.0 mg/kg/injection, schedule: Q04DX004 (ip), vehicle: saline) and 0 of 10 on day 14 (dose: 800.0 mg/kg/injection, schedule: Q04DX004 (ip), vehicle: saline).
For the compound `NC(=O)c1[nH]cnc1O`, the survivor count is, setting by setting: under setting [3], 6 of 10 on day 14; under setting [5], 3 of 10 on day 14 and 4 of 10 on day 14.
For the compound `CCC(/C=C/C1OC(=O)C=CC1C)=C\C(C)C/C=C/C(C)=C/C(C)C(=O)C(C)C(O)C(C)C/C(C)=C/C(=O)O` (stereo unspecified), the T/C (dose: 25.0 micrograms/kg/injection, schedule: Q04DX004 (ip), vehicle: saline + alcohol) is 131 and 149 % of control; the T/C (dose: 50.0 micrograms/kg/injection, schedule: Q04DX004 (ip), vehicle: saline + alcohol) is 127 % of control; the T/C (dose: 100.0 micrograms/kg/injection, schedule: Q04DX004 (ip), vehicle: saline) is 132 % of control; the T/C (dose: 200.0 micrograms/kg/injection, schedule: Q04DX004 (ip), vehicle: saline + alcohol) was 148 % of control; the T/C (dose: 200.0 micrograms/kg/injection, schedule: Q04DX004 (ip), vehicle: saline) is 142 % of control [9 of 10 alive on day 14]; the T/C (dose: 400.0 micrograms/kg/injection, schedule: Q04DX004 (ip), vehicle: saline) is 133 % of control (2×). Besides, the T/C runs as follows: (dose: 800.0 micrograms/kg/injection, schedule: Q04DX004 (ip), vehicle: other) 148 % of control; (dose: 800.0 micrograms/kg/injection, schedule: Q04DX004 (ip), vehicle: saline) 147 % of control. The survivor count (dose: 1600.0 micrograms/kg/injection, schedule: Q04DX004 (sc), vehicle: other) is listed as 1 of 10 on day 14.
Turning to `O=C(O)CCCc1ccc(N(CCCl)CCCl)cc1`, the T/C (dose: 8.0 mg/kg/injection, schedule: Q04DX004 (ip), vehicle: saline with Tween-80) was 134 % of control; the T/C (dose: 16.0 mg/kg/injection, schedule: Q04DX004 (ip), vehicle: saline with Tween-80, evaluated on day 60) is 149 % of control; the T/C (dose: 16.0 mg/kg/injection, schedule: Q04DX004 (ip), vehicle: saline with Tween-80, evaluated on day 75) is 142 % of control [8 of 10 alive on day 14]. Moreover, the survivor count reads like this: (dose: 32.0 mg/kg/injection, schedule: Q04DX004 (ip), vehicle: saline with Tween-80) 0 of 10 on day 14 and 6 of 10 on day 14; (dose: 64.0 mg/kg/injection, schedule: Q04DX004 (ip), vehicle: saline with Tween-80) 0 of 10 on day 14.
Consider `Cc1ccccc1C1C(C#N)C(=O)NC(=O)C1C#N` (stereo unspecified), for which the survivor count under setting [1] is reported as 0 of 10 on day 14.
Still for that read-out and setting: the figure for `CC(=O)C1C(=O)C(=O)N(c2ccccc2C)C1=O` (stereo unspecified) is 6 of 10 on day 14.
As for `COc1cc2c(c(OC)c1O)-c1ccc(OC)c(=O)cc1[C@@H](NC(=O)C(F)(F)F)CC2`, the T/C was 126 % of control (dose: 1.25 mg/kg/injection, schedule: Q04DX004 (ip), vehicle: Klucel (hydroxypropylcellulose) (HPC)); 137 % of control (dose: 2.5 mg/kg/injection, schedule: Q04DX004 (ip), vehicle: Klucel (hydroxypropylcellulose) (HPC)); 137 % of control [9 of 10 alive on day 14] (dose: 5.0 mg/kg/injection, schedule: Q04DX004 (ip), vehicle: Klucel (hydroxypropylcellulose) (HPC)); 144 % of control (dose: 10.0 mg/kg/injection, schedule: Q04DX004 (ip), vehicle: Klucel (hydroxypropylcellulose) (HPC)); 149 % of control [8 of 10 alive on day 14] (dose: 20.0 mg/kg/injection, schedule: Q04DX004 (ip), vehicle: Klucel (hydroxypropylcellulose) (HPC)). In addition, the survivor count is on record as 6 of 10 on day 14 (dose: 12.0 mg/kg/injection, schedule: Q04DX004 (ip), vehicle: Klucel (hydroxypropylcellulose) (HPC)) and 6 of 10 on day 14 (dose: 33.33 mg/kg/injection, schedule: Q04DX004 (ip), vehicle: Klucel (hydroxypropylcellulose) (HPC)).
For the compound `CCc1ccccc1N1CCN(C(=O)c2cc(OC)c(OC)c(OC)c2)CC1`, the T/C was 131 % of control under setting [6] and 139 % of control under setting [7].
As for `COc1ccc(OC)c(N2C(=O)C(=O)C(C(C)=O)C2=O)c1` (stereo unspecified), the survivor count is 0 of 10 on day 14 under setting [6], 0 of 10 on day 14 under setting [7] and 0 of 10 on day 14 under setting [1].
In the case of `COCCCNC1=C(C#N)C(=O)NC2(CCCC2)S1`, the survivor count under setting [5] was 5 of 10 on day 14.
Regarding `CCn1c(-c2ccc(OC(C)=O)cc2)c(C)c2cc(OC(C)=O)ccc21`, under setting [7], the survivor count was 9 of 10 on day 14.
Turning to `NC(=S)N/N=C/c1ncccc1O`, the survivor count (dose: 800.0 mg/kg/injection, schedule: Q04DX004 (ip), vehicle: suspension in saline) is listed as 0 of 10 on day 14.
For the compound `C[C@]12C=CC(=O)C=C1CC[C@@H]1[C@@H]2C(=O)C[C@@]2(C)[C@H]1CC[C@]2(O)C(=O)CO`, the T/C is 147 % of control under setting [2] and 125 % of control under setting [6]. For the same compound, the survivor count was 10 of 10 on day 9 under setting [7] and 3 of 10 on day 9 under setting [1].
As for `O=C1N=NC2=C1c1c3ccccc3c(O)n1CC2`, the survivor count under setting [4] is on record as 10 of 10 on day 14.
